## Primary screen of a compound library

Sequences of proteins named here, by UniProt entry; tags and fusion partners are left off. Residues count along the entry.
UniProt A4I591, 1-473: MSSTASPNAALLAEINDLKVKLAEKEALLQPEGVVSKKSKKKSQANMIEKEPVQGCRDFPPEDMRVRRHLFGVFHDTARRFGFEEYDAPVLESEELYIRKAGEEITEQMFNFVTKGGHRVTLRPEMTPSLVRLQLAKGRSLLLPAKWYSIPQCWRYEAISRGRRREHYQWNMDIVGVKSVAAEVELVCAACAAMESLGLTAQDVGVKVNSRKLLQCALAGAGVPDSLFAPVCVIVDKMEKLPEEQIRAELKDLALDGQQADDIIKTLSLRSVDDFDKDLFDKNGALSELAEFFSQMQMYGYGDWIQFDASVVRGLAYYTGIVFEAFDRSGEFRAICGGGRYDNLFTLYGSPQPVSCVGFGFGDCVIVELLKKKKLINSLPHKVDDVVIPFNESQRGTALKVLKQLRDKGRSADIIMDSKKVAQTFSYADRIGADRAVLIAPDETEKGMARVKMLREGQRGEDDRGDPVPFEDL

The values are deposited in ChEMBL (CHEMBL3988442, “University of Dundee, Small-Polar-MMV Screening Library” (2021)).

Values are the deposited “Percent Effect”, in %. How 0% and 100% were set is not recorded. Most values in the screen are low, and negative values occur. The compounds are a random part of those screened.

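Histidine-tRNA ligase, Leishmania infantum (UniProt A4I591). Enzyme assay of histidyl-tRNA synthetase; the read-out is not stated. Tested at 30 µM. Higher reads as stronger inhibition (inferred: compounds with an IC50 in retests scored well above the rest). The assay is labelled LdHisRS but filed under L. infantum. Size under these conditions: about 69,000 compounds, about 410 of them at 50% or above in at least one test.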

Compound	Percent Effect
O=C(NCCCNC(=O)C1CCC1)NCCn1cccc1	10.64%
CN1CCN(Cc2ccccc2Oc2nccc3occc23)CC1	8.602%
Cn1cccc1C(=O)N1CCC2(CCCN2S(C)(=O)=O)CC1	-142.1%
COc1ncccc1CN1C[C@@H]2COC[C@]2(COCC2CC2)C1	5.825%
Cc1cccc(C(C(=O)N2CC(c3ccncc3)C2)N(C)C)c1 (stereo not shown)	18.67%
COc1ccc(CNC(=O)c2ccc(Br)cn2)cc1	26.32%
CN(C(=O)Nc1ccncc1)C1CCN(c2ccc(Cl)cc2)CC1	22.34%
CC(C)C(=O)N1CCC(NC2CCSCC2)C1 (stereo not shown)	1.667%
CC(=O)N1CCN(C(=O)c2ccc(-c3cccc(C)c3)[nH]c2=O)CC1	7.865%
COC(=O)c1ccc(C(=O)N2CCc3c(ncn3C3CC3)C2)cc1	19.54%
CC(c1ccncc1)N(CCN(C)C)C(=O)Nc1ccc(Cl)cc1 (stereo not shown)	2.632%
c1cnc(NCc2noc3c2CN(CCN2CCCC2)CC3)nc1	15.09%
Cn1ccnc1C(NCc1ccccc1)c1ccc(F)cc1 (stereo not shown)	20.18%
COCCN(C)C[C@@H]1CN(c2cc(C)nc3ccccc23)C[C@@H]1CO	13.25%
Cc1nn(CC(C)C)c(C)c1CC(=O)N1CCCC(NS(C)(=O)=O)C1 (stereo not shown)	7.609%
Cc1nc(C)n(CC2CN(CCCOc3ccccc3)CCO2)n1 (stereo not shown)	1.754%
O=C(c1ccc(Br)o1)N1CCN(Cc2ccc(OC(F)(F)F)cc2)CC1	13.46%
O=C(NCc1ccc(-n2cncn2)nc1)N(CC1CCOC1)C1CC1 (stereo not shown)	13.7%
Cn1ccc(C(=O)N2CCOC3(COCCN(CC4CC4)C3)C2)n1 (stereo not shown)	19.23%
CS(=O)(=O)N1CCO[C@@H]2CN(C(=O)N3CCOCC3)CC[C@@H]2C1	4.505%
Cc1nn(-c2ncccn2)c2c1C(c1cnn(C)c1)SCC(=O)N2 (stereo not shown)	21.05%
COCCN(Cc1ccco1)Cc1nc(-c2ccccc2)no1	10.92%
CCc1cnc2c(c1NCc1ccc(OC)cc1)c(=O)n(C)c(=O)n2C	11.24%
O=C(c1cncs1)N1CCOCC(Cc2ccncn2)C1 (stereo not shown)	5.755%
CN(Cc1noc(C(C)(C)C)n1)Cc1ccccc1N1CCCC1	10.59%
N#Cc1ccccc1N1CCCN(C(=O)CCc2ccco2)CC1	21.43%
N#Cc1c(N)nc2c(c1-c1cnc(N3CCCC3)nc1)COCC2	23.91%
CC(c1ccco1)N(C)Cc1cc2cc3c(cc2[nH]c1=O)OCO3 (stereo not shown)	16.39%
CC(C)n1ccnc1C1CCCN(c2ncccc2C(N)=O)C1 (stereo not shown)	10.42%
CC(C)COC(C)C(=O)N1CCC(C)CC1 (stereo not shown)	-8.571%
O=C(NCCO)Nc1ccc(Br)c(F)c1	12.61%
O=C(NCCCNC(=O)c1ccc(F)cc1F)c1cccc(O)c1	13.48%
CCOc1cc(C(=O)N2CCCC(c3noc(C)n3)C2)ccc1OC (stereo not shown)	8.036%
O=C(c1cscn1)N1CCC2(CC1)CN(c1ccccn1)CCO2	6.422%
Cn1ccnc1CN1CC[C@@H]2[C@@H](CCC(=O)N2CCc2c[nH]cn2)C1	14.52%
CC1CCN(C(=O)CSCc2noc(C(C)C)n2)CC1	8.219%
O=C(c1ccsc1)N1CCc2c(CNc3nccs3)n[nH]c2C1	13.89%
COCCN(Cc1coc(-c2ccc(OC)cc2)n1)C1CC1	0%
CC(C)NC(=O)N1CCn2c(nnc2C2CCCN2)C1 (stereo not shown)	1.379%
CCn1nc(C)c2ccn(CC(=O)NCCN3CCCCC3)c(=O)c21	13.48%
Cn1ccc(CN2CCC(CC(=O)NC3CCCC3)CC2)cc1=O	-8.333%
O[C@@]1(CNCCCOc2cccnc2)CCCN2CCCC[C@@H]21	0.8333%
CC(=O)N1CCCC(c2ccc(CO)c(-c3c(C)noc3C)n2)C1 (stereo not shown)	10.74%
Cc1oncc1C(=O)N1CCC2(CCN(Cc3ccccn3)C2=O)C1 (stereo not shown)	5.714%
Cc1cc(C)n(Cc2cccc(C(=O)NCCSCC(C)(C)O)c2)n1	8.642%
COCCN1CCC(c2nc3cc(C)ccc3[nH]2)CC1	14.18%
N#CCCN(C(=O)CN1CCCC1c1ccccc1Cl)c1ccccc1 (stereo not shown)	13.39%
CC(C)N1CCO[C@@H]2CN(S(=O)(=O)c3cccs3)CC[C@@H]2C1	18.87%
Cc1cc(C)nc(C2(C)CCCN2CCO)n1 (stereo not shown)	15.83%
COc1nn(C)c2c1CCCN(C(=O)c1cnccn1)C2	8.182%
CCC1CN(C(=O)c2csc(-c3cnn(C)c3)n2)CCO1 (stereo not shown)	14.53%
CC(C)N1CC2(CCCN(Cc3noc(C4CCCC4)n3)C2)CCC1=O (stereo not shown)	12.5%
N#Cc1ncn(CCC(=O)Nc2ccccc2F)n1	1.064%
O=C(c1ccco1)N1CCN2C[C@H](Oc3cncnc3)C[C@H]2C1	13.89%
Cc1cccc(COC[C@@H]2CC[C@H]3[C@H](CCN3Cc3ccco3)O2)n1	13.33%
CCn1cnnc1CNC(=O)N1CCOC(c2ccc(F)cc2)C1 (stereo not shown)	17.65%
Cc1nc(C2CCCN2C(=O)c2cc3c(s2)CCCC3)no1 (stereo not shown)	5.6%
COCC(=O)N1CCC(C(=O)c2cc(C)cnc2N)CC1	4%
CN1CC2(CCCN(Cc3nnc(-c4cccc(F)c4)o3)C2)OC1=O (stereo not shown)	11.29%
CNc1cc(N2CCCC2CNCc2cccnc2)ncn1 (stereo not shown)	12.94%
CC(C)=CCC1(CO)CCCN(Cc2nccs2)C1 (stereo not shown)	14.17%
CCn1nc(C)c(C(=O)Nc2ccc3c(c2)C(C)(C)C(=O)N3C)c1C	-2.5%
CCN1CCN(CC(O)c2ccc(OC(F)(F)F)cc2)CC1 (stereo not shown)	30.95%
Cc1ccc(CN2CC[C@H]3[C@H]2CCN3S(C)(=O)=O)s1	20%
Cc1nc(N2CCCC2)nc2c1CCN(C(=O)C1CCCCC1)CC2	23.08%
CNC(=O)CS(=O)(=O)NC1CCC(C)CC1 (stereo not shown)	19.05%
CCn1nc2c(cc1=O)CN(Cc1nc(-c3ccccn3)no1)CC2	85.11%
COCC(O)CN(C)c1cc(C(F)(F)F)nc(-c2cccnc2)n1 (stereo not shown)	11.61%
Cc1cc(C(=O)N2CCc3ncc(CN4CCCC4)n3CC2)no1	14%
CCC(C)N1CCC(Oc2ccc(C(=O)NCCN(C)C)cc2Cl)CC1 (stereo not shown)	3.279%
O=C1NC[C@H]2CN(Cc3ccccn3)CCN12	5.556%
CC(C)c1noc(C(C)N2CCN(CCCN3CCCC3=O)CC2)n1 (stereo not shown)	7.143%
COc1ccc(CN(Cc2cn(C)nc2C)CC2CCCO2)c(OC)c1 (stereo not shown)	6.186%
Cc1ccc2nc(CN(C)Cc3ccc(C)o3)cc(=O)n2c1	13.7%
CNC(=O)CN1CCOCC12CCN(C(=O)c1ccccc1)CC2	15.6%
COc1ccc(F)cc1C[S+]([O-])CC(=O)NCC(C)C (stereo not shown)	9.524%
Cc1ncc(C(=O)NCCNc2ncccc2C#N)s1	4.386%
O=S1(=O)CCN2C(=N1)Oc1ccc(S(=O)(=O)N3CCCC3)cc12	13.16%
O=C(O)CSc1nnc(-c2cn[nH]c2)n1-c1ccccc1C(F)(F)F	14.75%
Cn1cccc1C(=O)NC[C@H]1C[C@@H]2CN(C(=O)c3ccco3)C[C@@H]2O1	13.51%
O=C(c1ccncc1)N1CCN(Cc2cccnc2)c2ncccc2C1	2.778%
CCN(Cc1cnn(C)c1)C[C@H]1CC[C@@H](Cc2cccc(C#N)c2)O1	3.125%
O=C(c1cccnc1-c1ccc2c(c1)OCCO2)N1CCCC1	10%
c1coc(COCc2ncn3c2CN(Cc2cccs2)CCC3)c1	20.59%
COc1ccc(C(=O)NS(=O)(=O)c2cncc(Br)c2)cc1	8.163%
CCN(CC)c1ccc(C(=O)NCc2cccnc2-n2cncn2)cn1	20.75%
CC(C)(O)CSCCNC(=O)c1ccc(F)cc1Cl	13.7%
Fc1ccc(CN2CCCN(Cc3cscn3)CC2)cc1	26.67%
CCC(C)(C)C(=O)NCCCOC1CCOC1 (stereo not shown)	-2.857%
CN(C)S(=O)(=O)N1CCC(Oc2cccnn2)CC1	0%
Cc1ccc(S(=O)(=O)N2CCOCC2C#N)c(F)c1 (stereo not shown)	3.571%

Once more, the final 12:

| Compound | Percent Effect |
|---|---|
| `Cn1cccc1C(=O)NC[C@H]1C[C@@H]2CN(C(=O)c3ccco3)C[C@@H]2O1` | 13.51% |
| `O=C(c1ccncc1)N1CCN(Cc2cccnc2)c2ncccc2C1` | 2.778% |
| `CCN(Cc1cnn(C)c1)C[C@H]1CC[C@@H](Cc2cccc(C#N)c2)O1` | 3.125% |
| `O=C(c1cccnc1-c1ccc2c(c1)OCCO2)N1CCCC1` | 10% |
| `c1coc(COCc2ncn3c2CN(Cc2cccs2)CCC3)c1` | 20.59% |
| `COc1ccc(C(=O)NS(=O)(=O)c2cncc(Br)c2)cc1` | 8.163% |
| `CCN(CC)c1ccc(C(=O)NCc2cccnc2-n2cncn2)cn1` | 20.75% |
| `CC(C)(O)CSCCNC(=O)c1ccc(F)cc1Cl` | 13.7% |
| `Fc1ccc(CN2CCCN(Cc3cscn3)CC2)cc1` | 26.67% |
| `CCC(C)(C)C(=O)NCCCOC1CCOC1` (stereo not shown) | -2.857% |
| `CN(C)S(=O)(=O)N1CCC(Oc2cccnn2)CC1` | 0% |
| `Cc1ccc(S(=O)(=O)N2CCOCC2C#N)c(F)c1` (stereo not shown) | 3.571% |